{"source": "patent US7998754B2", "about": "“In vitro method for the simultaneous detection and identification of antibiotics of different classes and corresponding diagnostic kit” (Unisensor S.A., priority 2005, dated 2011)", "key": {"[1]": {"test_system": "tetracycline receptor (TetR)", "assay": "Example 1 dipstick test in milk, \"tetra\" capture zone (format 1)", "type": "binding, E. Coli", "settings": "for Intensity ratio of parameter/control zone: at the detection limit concentration; for Detection limit: Concentration: tetracyclines, positive when ratio test/control <= 1", "description": "In addition, the recovery system is a specific and biotinylated fragment of DNA that can be fixed on a molecule of avidine attached to a nitrocellulose membrane. […] In this case, the fragment of DNA forms a complex with the receptor and a signal generated by the gold particles attached to the receptor appears.\n(§1) For the detection of β-lactames, the reactive mixture comprises the specific receptor for recognising β-lactames, its specific antibody and a preparation of protein A conjugated with colloidal gold. For the detection of tetracyclines, the reactive mixture comprises the receptor of the tetracyclines, its specific antibody, a specific fragment of DNA conjugated with biotin and a preparation of protein A conjugated with colloidal gold.\n(§2) The β-lactame receptor is obtained by the method described by Golemi-Kotra et al.^(6) The unpurified receptor is filtered on a Millex HV membrane (Millipore, Inc., USA) before it is stored at 4° C. in the presence of glycerol at 50% v/v.\nThe DNA fragment is obtained at Eurogentec SA, Belgium according to the sequence and preparation described in patent application WO-A-03/048770. In this precise case, the DNA fragment is not fixed to a capture point on a nitrocellulose membrane but it is directly incorporated into the reactive mixture. This fragment will be recovered in testo by means of its biotinylated end on avidine fixed to a capture point (see below).\n(§3) This mixture is either prepared as required or lyophilisated for 20 hours. The Recovery System\n(§4) The recovery system comprises a nitrocellulose membrane on which are fixed, at distinct points, the elements capable of forming a complex with the recognition molecules of the reactive mixture. These elements are: • for the “beta” signal (for β-lactame), an antibiotic, preferably of penicillin or cephalosporine type, fixed to a molecule with no particular reactivity to protein A, biotin or avidine. […] An egg-white avidine is preferably used.\n(§5) In the case of a detection of two parameters, the preparations of β-lactoglobulin and avidine will be deposited on each side of the control line. For example, the β-lactoglobulin conjugate already prepared will be deposited below the control line and the neutralized avidine solution will be deposited above the control line (FIG. 1).\n(§6) 200 μL of cold milk are incubated at 50° C. in the presence of 50 μl of the reagents prepared and/or lyophilisated as above. After 3 minutes of incubation at 50° C., the above-described recovery element is immersed in the solution. The final interpretation is made after 3 minutes of incubation by means of an optical dipstick reader available at Matest (Germany);\n(§7) As a general rule, when the ratio of the intensities of the concerned test signal relative to the control signal is less than or equal to 1, the sample is considered positive for the parameter (compound) concerned."}, "[2]": {"test_system": "tetracycline receptor (TetR)", "assay": "Example 2 three-parameter dipstick test in milk, tetracycline capture zone (format 1)", "type": "binding, E. Coli", "settings": "for Ratio test/control: at the detection limit concentration; for Concentration detection limit: tetracyclines, three-parameter test", "protocol": "This mixture is prepared either as required or lyophilisated for 20 hours. The Recovery System\nThe other capture zones are identical but differently positioned, as in FIG. 2.\nA single control zone serves as a reference for the three markers.\nas §6, with “(Germany).” for “(Germany);”\nAs a general rule, if the ratio of the intensities of the concerned test signal relative to the control signal is less than or equal to 1, the sample is considered as positive for the parameter (compound) concerned."}, "β-lactame receptor (RSA)": {"biological_target": "T1, β-lactame receptor (RSA) (Staphylococcus aureus, UniProt P18357)", "T1 construct": "made in house", "T1 sequence (P18357 331-585 limits assumed)": "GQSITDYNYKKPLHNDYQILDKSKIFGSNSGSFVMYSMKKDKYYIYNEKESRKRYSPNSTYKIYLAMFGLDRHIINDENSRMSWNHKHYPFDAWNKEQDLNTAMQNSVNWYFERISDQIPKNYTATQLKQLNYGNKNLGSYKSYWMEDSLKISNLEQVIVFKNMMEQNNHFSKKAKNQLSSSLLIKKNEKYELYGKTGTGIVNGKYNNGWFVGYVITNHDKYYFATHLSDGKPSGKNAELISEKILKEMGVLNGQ", "type": "binding", "settings": "milk", "description": "as §1, §2, §3, §4, §5, §6, §7"}}, "note": "Like-named read-outs stand apart in the source and are kept apart here. At least one compound was matched to its structure with a doubt left."}
{"smiles": "CN(C)[C@@H]1C(O)=C(C(N)=O)C(=O)[C@@]2(O)C(O)=C3C(=O)c4c(O)ccc(Cl)c4[C@@](C)(O)[C@H]3C[C@@H]12", "note": "[Chlortetracycline]", "values": [{"measurement": "Intensity ratio of parameter/control zone", "setting": "[1]", "result": 0.8}, {"measurement": "Detection limit: Concentration", "setting": "[1]", "result": 50, "unit": "ppb"}, {"measurement": "Ratio test/control", "setting": "[2]", "result": 0.7}, {"measurement": "Concentration detection limit", "setting": "[2]", "result": 50, "unit": "ppb"}]}
{"smiles": "C[C@H]1c2cccc(O)c2C(=O)C2=C(O)[C@]3(O)C(=O)C(C(N)=O)=C(O)[C@@H](N(C)C)[C@@H]3[C@@H](O)[C@@H]21", "note": "[Doxycycline]", "values": [{"measurement": "Intensity ratio of parameter/control zone", "setting": "[1]", "result": 0.8}, {"measurement": "Detection limit: Concentration", "setting": "[1]", "result": 20, "unit": "ppb"}, {"measurement": "Ratio test/control", "setting": "[2]", "result": 0.6}, {"measurement": "Concentration detection limit", "setting": "[2]", "result": 20, "unit": "ppb"}]}
{"smiles": "CN(C)[C@@H]1C(O)=C(C(N)=O)C(=O)[C@@]2(O)C(O)=C3C(=O)c4c(O)cccc4[C@@](C)(O)[C@H]3[C@H](O)[C@@H]12", "note": "[Oxytetracycline]", "values": [{"measurement": "Intensity ratio of parameter/control zone", "setting": "[1]", "result": 0.8}, {"measurement": "Detection limit: Concentration", "setting": "[1]", "result": 50, "unit": "ppb"}, {"measurement": "Ratio test/control", "setting": "[2]", "result": 0.9}, {"measurement": "Concentration detection limit", "setting": "[2]", "result": 50, "unit": "ppb"}]}
{"smiles": "CN(C)[C@@H]1C(O)=C(C(N)=O)C(=O)[C@@]2(O)C(O)=C3C(=O)c4c(O)cccc4[C@@](C)(O)[C@H]3C[C@@H]12", "note": "[Tetracycline]", "values": [{"measurement": "Intensity: zone B", "setting": "β-lactame receptor (RSA); Ampi 0 + Tetra 25 ppb", "result": 505}, {"measurement": "Intensity: zone B", "setting": "β-lactame receptor (RSA); Ampi 0 + Tetra 50 ppb", "result": 521}, {"measurement": "Intensity: zone B", "setting": "β-lactame receptor (RSA); Ampi 0 + Tetra 75 ppb", "result": 523}, {"measurement": "Intensity: zone B", "setting": "β-lactame receptor (RSA); Ampi 0 + Tetra 100 ppb", "result": 508}, {"measurement": "Intensity: zone T", "setting": "[1]; Ampi 0 + Tetra 25 ppb", "result": 340}, {"measurement": "Intensity: zone T", "setting": "[1]; Ampi 0 + Tetra 50 ppb", "result": 288}, {"measurement": "Intensity: zone T", "setting": "[1]; Ampi 0 + Tetra 75 ppb", "result": 162}, {"measurement": "Intensity: zone T", "setting": "[1]; Ampi 0 + Tetra 100 ppb", "result": 55}, {"measurement": "Intensity: zone T", "setting": "[1]; Ampi 4 ppb + Tetra 75 ppb together", "result": 165}, {"measurement": "Detection limit: Concentration", "setting": "[1]", "result": 75, "unit": "ppb"}, {"measurement": "Concentration detection limit", "setting": "[2]", "result": 75, "unit": "ppb"}]}
